Laboratory results: patent US20050182002A1, “Agents which interact with a serotonin transporter for the treatment of cancer” (priority 2002, published 2005)
At least one compound was matched to its structure with a doubt left.

Key:
Assay type in all cases: cell-based
[1] = test system: L3055 BL cells; test: DNA synthesis by [3H]-thymidine incorporation in L3055 cells
Protocol: DNA synthesis was determined by measuring ^3H-thymidine ([^3H]Tdr; Amersham, UK) incorporation into cellular DNA. Cells were cultured in 200 μL of supplemented medium at densities and for times indicated below in flat-bottomed, 96-well tissue culture plates (Becton Dickinson, Oxford, U K) then pulsed for the final 4 h with 50 μl of 10 μCi/ml [^3H]Tdr before harvesting on a Skatron cell harvester (Helis Bio Ltd, Newmarket, UK).

[2] = test system: L3055 cells; test: Caspase activity (FAM-VAD-FMK, FACS); settings: single dose for 24 hours; fluoxetine 10 μM, paroxetine 10 μM, citalopram 100 μM
Protocol: Caspase activity was detected using the CaspaTag Caspase Activity Kit (Intergen, Oxford, UK). Cells cultured under the conditions indicated below were harvested into 300 μl of culture medium at a cell density of 10^6cells/ml, followed by the addition of […] of a 30×working solution of FAM-VAD-FMK (a carboxy fluorescent tagged caspase inhibitor) (Intergen Co., USA). Cells were then incubated for 1 hr at 37° C. under 5% CO2 while protecting the tubes from light. At the end of the incubation, they were washed twice in 2 ml of 1×washing buffer, followed by addition of 2 μl of PI to distinguish dead cells from live cells, then analysed on an EPICS XL-MCL flow cytometer or by confocal microscopy. For the latter, treated cells were harvested into 300 μl of culture medium containing 10 μl of FAM-VAD-FMK before incubating for 1 hr under the conditions described above. Next, 1.5 μl of Hoechst 33342 stain was added for 5 min, and cells were washed twice in 2 ml of 1×washing buffer following the addition of 1 μl of PI.

[3] = test system: L3055 cells; test: Intracellular free Ca2+; settings: data not shown
From the text: The increase in intracellular free Ca^2+ is known to be an important step in the induction of apoptosis.

CN(C)CCCC1(c2ccc(F)cc2)OCc2cc(C#N)ccc21 (stereo not shown) [citalopram]
influence of pre-treatment on 5-HT-dependent inhibition of DNA synthesis (in words) ([1]; cells pre-treated with agent before 5-HT): substantially reversed | effect on DNA synthesis (in words) ([1]; single dose, range of concentrations, [3H]-thymidine incorporation at 24 hr): dose dependent inhibitory effect | effect on number of cells showing caspase activity (in words) [2]: significant effect on the numbers of cells showing caspase activity | basal Ca2+ (in words) [3]: increase in basal Ca^2+
